{"source": "patent US6555698B1", "about": "“Chemiluminescent substrates for neuraminidase, assays for detection of neuraminidase and kits therefor” (Tropix, Inc., priority 1998, dated 2003)", "key": {"Oxford sialidase [1]": {"tested_on": "Oxford sialidase", "assay": "Turner luminometer assay, incubation with Oxford sialidase at pH 5.5, then AMP pH 10 injection (Experiments 1-3)", "format": "biochemical", "details": "0.1 units enzyme", "description": "Next, 0.2 units of Oxford Enzyme were diluted with 400 microliters of […]. 200 microliters of the enzyme (0.1 units) were then treated with 10 microliters of the dioxetane stock and incubated at 37° C. for 15 minutes. The solution was then placed in a Turner luminometer. Light was detected at a constant 80 RLU at a pH of 5.5. All Turner readings were calibrated to 31.5° C.\n5 microliters of the dioxetane stock prepared in Experiment 1 was added to 0.05 units of Oxford sialidase in 200 microliters of the pH 5.5 buffer. The solution (approximately a 110 micromolar substrate) was incubated at 37° C. for 15 minutes. The solution was then placed in a Turner luminometer, and steady light emission at about 55 RLU was noted (see FIG. 6). Next, 400 microliters of AMP pH 10 buffer was injected to produce an off-scale light spike (i.e., greater than 10,000 RLU).\nExperiment 2 was repeated with a 110 micromolar substrate in the presence of 0.025 units of the enzyme. FIG. 7 illustrates that at a pH of 5.5, the light level obtained (56 RLU) was similar to that obtained in Experiment 2. […] Next, an additional 400 microliters of the AMP pH 10 buffer was added, which produced a light peak at 8860 RLU and similar decay kinetics as in Experiment 2."}, "Oxford sialidase [2]": {"tested_on": "Oxford sialidase", "assay": "One step chemiluminescence at pH 7.7 after adding Oxford sialidase (Experiment 6)", "format": "biochemical", "details": "pH 7.7, 0.25 units sialidase", "description": "After incubation, 0.25 units of Oxford sialidase in 50 microliters of 50 micromolar acetate buffer was added. Chemiluminescence was spontaneously produced, rising to a maximum of 1380 RLU at 3.25 minutes (see FIG. 10)."}}, "note": "For at least one compound, name, drawing or mass did not settle the structure.", "data": [{"smiles": "COC1(c2ccc(Cl)c(O[C@]3(C(=O)[O-])C[C@H](O)[C@@H](NC(C)=O)[C@H]([C@H](O)[C@H](O)CO)O3)c2)OOC12C1CC3CC2CC(Cl)(C3)C1.[Na+]", "note": "(some centres unmarked) [dioxetane 489-102]", "values": [{"measurement": "half life of light decay after AMP pH 10", "setting": "Oxford sialidase [1]", "value": "about 1.25 minutes"}, {"measurement": "half life in the decay portion of the curve", "setting": "Oxford sialidase [2]", "value": "about 5.5 minutes"}]}]}
